According to patent US20120088688A1, “IN VITRO ASSAY FOR IDENTIFICATION OF ALLERGENIC PROTEINS” (BIOVATOR TECHNOLOGIES AB, priority 2005, published 2012):
Where a name gives a salt, the structure may show the parent alone. Some entries share one result that the patent states for a list of compounds.

System: Mono Mac 6 cells
Test: Micro array gene expression profiling (HG_U95Av2 chip) of Mono Mac 6 cells following allergen treatment
Assay type: cell-based, human
Conditions: 6 h exposure
Experimental: The cell line Mono Mac 6 (AstraZeneca Cell Storage and Retrieval, Alderley Park, UK) was cultivated in RPMI 1640 medium with 10 mM HEPES buffer (Gibco, UK), 2 mM L-glutamine, 9 μg/mL human insulin, 1.0 mM sodium pyruvate, 10% fetal bovine serum, 5.6 μl/mL glucose, 100 U/mL penicillin and 100 μg/ml streptomycin. Fresh medium for cultivation was added or changed frequently (every 2:nd or 3:rd day), maintaining a cell density of viable cells/mL between 0.5×10^6 and 1.0×10^6. The cell line was in suspension/loosely adherent and sub cultures were prepared when needed by scraping. The plates were cultivated in an inclined position at 37° C. and 5% CO2 in a Galaxy R (Lab Rum Klimat Ab, Sweden) incubator
Cells were treated with four different allergens, according to table 2, in duplicate cultures. The test substances were all diluted in double distilled water. The duplicate cultures were treated at different exposure days. All treatments were 6 hours and control cells were left unexposed.
20 individual cultures with 500 000 cells per culture were treated identical for each substance. After 6 h exposure identical treated cells were harvest and pooled into a 50 ml Falcontube, pelleted at 540 g for 5 minutes in 7° C. […] The supernatant was removed and the cells were freeze-dried with liquid nitrogen and thereafter put into −152° C. freezer until further preparation.
Experimental procedures were performed according to Gene Chip®Expression Analysis Technical Manual (rev1, 2001) with minor modifications as described. […] 30 μg of total RNA was used for cDNA synthesis and in vitro transcript labeling with biotin was performed according to Enzo BioArray RNA Transcription Labeling Kit (Enzo, U.S.A). cRNA quality was analyzed on a Agilent Bioanalyser 2001 (Agilent Technologies, U.S.A) and the concentration was measured on a Nano Droop (Saveen Werner, Sweden). […]
Data obtained were analyzed using the MAS 5.0 model base. A detection call was calculated for all probe sets, representing if the transcript of a particular gene was present or absent, all absent genes were excluded from analysis. […]

SMILES: CC1(C)S[C@@H]2[C@H](NC(=O)Cc3ccccc3)C(=O)N2[C@H]1C(=O)O [penicillin G, Benzylpenicillin sodium salt]
- up regulation (times) of IFITM3: more than 2
- up regulation (times) of XK: more than 2
- up regulation (times) of the 10 gene products that are up regulated more than 10 times in aspergillus treated cultures: ≤ 2
